Experimental data reported in the supplement of paper PMC10689618.
The list shows a part of the results. Many values rest on one well or one pass, so single values are uncertain.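 Primary human fetal astrocytes engulfed labelled rat cortical synaptosomes, measured as a red/green ratio corrected for calcein live-cell signal and scaled to the plate median. Toxicity meant calcein falling over 30%; decreased phagocytosis meant below 70% of median above 5 µM.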

Key:
Human fetal astrocytes [1] = assay: loss of total cells relative to no-compound high-control median (toxicity); higher = more toxic (fewer cells); conditions: 24 h
Human fetal astrocytes [2] = assay: synaptosome phagocytosis (pHrodo/calcein intensity ratio) relative to plate median of data wells; higher = more phagocytosis; conditions: 24 h

SMILES | loss of total cells (Human fetal astrocytes [1]; 1.39 µM) [%] | loss of total cells (Human fetal astrocytes [1]; 2.78 µM) [%] | loss of total cells (Human fetal astrocytes [1]; 5.56 µM) [%] | loss of total cells (Human fetal astrocytes [1]; 11.11 µM) [%] | loss of total cells (Human fetal astrocytes [1]; 22.22 µM) [%] | synaptosome phagocytosis (Human fetal astrocytes [2]; 1.39 µM) [%] | synaptosome phagocytosis (Human fetal astrocytes [2]; 2.78 µM) [%] | synaptosome phagocytosis (Human fetal astrocytes [2]; 5.56 µM) [%] | synaptosome phagocytosis (Human fetal astrocytes [2]; 11.11 µM) [%] | synaptosome phagocytosis (Human fetal astrocytes [2]; 22.22 µM) [%]
CC(=O)Nc1ccc(S(=O)(=O)Nc2ccc([N+](=O)[O-])cc2)cc1 | 26.6 | -34.1 | -7.5 | -4.9 | 9 | 126 | 109 | 109 | 85.1 | 105
COc1ccc2[nH]c([S+]([O-])Cc3ncc(C)c(OC)c3C)nc2c1 (stereo not given) | -11.6 | -0.9 | 0.3 | -5.5 | 7.4 | 56.6 | 97.9 | 112 | 75.9 | 89.3
CC1(C)O[C@@H]2[C@@H](CO[C@@]3(COS(N)(=O)=O)OC(C)(C)O[C@@H]23)O1 | -17.4 | -3.4 | -0.3 | -29.7 | 3.4 | 108 | 114 | 99.3 | 136 | 101
CC(=O)Oc1cc(OC(C)=O)c2c(c1)O[C@H](c1ccc(OC(C)=O)c(OC(C)=O)c1)[C@@H](OC(C)=O)C2 | -27.2 | -10 | -16.8 | 14.2 | 24.8 | 81.7 | 123 | 94.1 | 91 | 117
C[C@@H]1O[C@@H](O[C@H]2[C@H](Oc3cc(O)c4c(=O)cc(-c5ccc(O)cc5)oc4c3)O[C@H](CO)[C@@H](O)[C@@H]2O)[C@H](O)[C@H](O)[C@H]1O | -22.1 | 5.4 | 0 | 5.4 | 11.9 | 78.6 | 109 | 110 | 82.3 | 103
OC[C@H]1O[C@@H](O[C@H]2[C@H](O)[C@@H](O)C(O)O[C@@H]2CO)[C@H](O)[C@@H](O)[C@@H]1O (stereo not given in full) | -6.6 | -14.8 | -5.1 | -0.7 | -3.7 | 125 | 104 | 125 | 110 | 110
COC(=O)CC[C@@H](C)[C@H]1CC[C@H]2[C@@H]3[C@H](O)C[C@@H]4C[C@H](O)CC[C@]4(C)[C@H]3C[C@H](O)[C@]12C | -8.2 | -17 | 1.5 | 20.9 | 6.7 | 120 | 98.9 | 90 | 141 | 137
O=C1c2ccccc2C(=O)C1c1ccccc1 | 14.9 | -7 | 19.5 | -15.6 | 10.8 | 112 | 92.9 | 119 | 99.8 | 143
N[C@@H](Cc1cc(I)c(Oc2ccc(O)c(I)c2)c(I)c1)C(=O)O | 9.2 | -9.2 | -11.1 | 0.3 | 42.2 | 134 | 106 | 89.2 | 112 | 122
OC[C@H]1O[C@H](O[C@]2(CCl)O[C@H](CCl)[C@@H](O)[C@@H]2O)[C@H](O)[C@@H](O)[C@H]1Cl | -13.4 | 0 | 35.1 | -3.9 | 15.2 | 112 | 110 | 124 | 81.7 | 123
COc1cc(OC)c2c(c1)OC(c1ccccc1)CC2=O (stereo not given) | -13.1 | -4.7 | 0.7 | -0.7 | -6.7 | 79.6 | 120 | 92.9 | 78.1 | 89.7
O=C(O[C@@H]1Cc2c(O)cc(O)cc2O[C@@H]1c1ccc(O)c(O)c1)c1cc(O)c(O)c(O)c1 | 0.4 | 0 | 37.4 | 43.9 | 30.7 | 120 | 120 | 141 | 93.7 | 75.4
C[C@@]12CCc3occc3[C@H]1CC[C@@]13C[C@@H](CC[C@H]12)[C@@](O)(CO)C3 | -27 | 6.1 | -6.6 | 3.4 | -3 | 99.1 | 91.4 | 85.5 | 104 | 82.6
COc1cc(OC)c2c(OC)c(-c3ccc4c(c3)OCO4)c(=O)oc2c1 | -24.6 | 3.2 | -2.2 | 11.5 | 11.1 | 121 | 96.2 | 94.1 | 106 | 111
Cc1c(Nc2ncccc2C(=O)O)cccc1C(F)(F)F | -27.4 | -36.5 | 3.7 | 1 | -0.9 | 85.3 | 100 | 123 | 78 | 103
CCC[C@@H]1C[C@@H](C(=O)N[C@@H]([C@H]2O[C@H](SC)[C@H](O)[C@@H](O)[C@H]2O)[C@H](C)Cl)N(C)C1 | 7.4 | -29.5 | -10.5 | -22.2 | -5.2 | 80.2 | 75.2 | 125 | 102 | 120
Cc1noc(NS(=O)(=O)c2ccc(N)cc2)c1C | -10.4 | -4.4 | 1.4 | 3.2 | 25.2 | 94.1 | 118 | 91.5 | 97.9 | 115
C[C@H](N)C(=O)NC(Cc1ccccc1)C(=O)O (mixture of isomers) | -12.3 | -8.3 | 10.3 | -12.8 | 5.9 | 91.4 | 80.2 | 119 | 108 | 87.3
NC(=O)c1cc[n+](CC2=C(C(=O)O)N3C(=O)[C@@H](NC(=O)[C@@H](c4ccccc4)S(=O)(=O)[O-])[C@H]3SC2)cc1 | 6.5 | -19.8 | 13.7 | 6.9 | 12.1 | 71.2 | 94.6 | 110 | 99 | 104
CN(C)CCOc1ccc(/C(=C(/CCCl)c2ccccc2)c2ccccc2)cc1 | -16.9 | 27.8 | 19.3 | 46.2 | 13.4 | 79.8 | 70 | 95.7 | 128 | 112

SMILES | loss of total cells (Human fetal astrocytes [1]; 1.39 µM) [%] | loss of total cells (Human fetal astrocytes [1]; 2.78 µM) [%] | loss of total cells (Human fetal astrocytes [1]; 5.56 µM) [%] | loss of total cells (Human fetal astrocytes [1]; 11.11 µM) [%] | loss of total cells (Human fetal astrocytes [1]; 22.22 µM) [%] | synaptosome phagocytosis (Human fetal astrocytes [2]; 1.39 µM) [%] | synaptosome phagocytosis (Human fetal astrocytes [2]; 2.78 µM) [%] | synaptosome phagocytosis (Human fetal astrocytes [2]; 5.56 µM) [%] | synaptosome phagocytosis (Human fetal astrocytes [2]; 11.11 µM) [%] | synaptosome phagocytosis (Human fetal astrocytes [2]; 22.22 µM) [%]
CN(C)CCc1c[nH]c2ccc(C[C@H]3COC(=O)N3)cc12 | -28.2 | -23.5 | 2.1 | -21.9 | -0.6 | 106 | 85.9 | 96.7 | 113 | 100
CC(=O)O[C@H]1CC[C@]2(C)C(C[C@@H](OC(C)=O)[C@]3(C)C4=CC(=O)O[C@H](c5ccoc5)[C@@]4(C)CCC23)C1(C)C (stereo partly drawn) [3-DEOXO-3beta-ACETOXYDEOXYDIHYDROGEDUNIN] | -8.3 | -2 | 26.7 | -5.8 | 1.1 | 122 | 92.8 | 139 | 97.7 | 78.2
O=C(OC[C@H]1O[C@@H](OC(=O)c2cc(O)c(O)c(OC(=O)c3cc(O)c(O)c(O)c3)c2)[C@H](OC(=O)c2cc(O)c(O)c(OC(=O)c3cc(O)c(O)c(O)c3)c2)[C@@H](OC(=O)c2cc(O)c(O)c(OC(=O)c3cc(O)c(O)c(O)c3)c2)[C@@H]1OC(=O)c1cc(O)c(O)c(OC(=O)c2cc(O)c(O)c(O)c2)c1)c1cc(O)c(O)c(OC(=O)c2cc(O)c(O)c(O)c2)c1 | -4.1 | 22.3 | 30.9 | 59.4 | 68 | 100 | 146 | 110 | 37.7 | 42.1
O=C(O)CN1C(=O)c2cccc3cccc(c23)C1=O | 29 | -20.6 | 9.3 | 7.5 | 13.4 | 116 | 65.2 | 100 | 106 | 110
O=C(O)c1cc(O)c2c(c1)[C@@H]([C@H]1c3cc(C(=O)O)cc(O)c3C(=O)c3c(O[C@@H]4O[C@H](CO)[C@@H](O)[C@H](O)[C@H]4O)cccc31)c1cccc(O[C@@H]3O[C@H](CO)[C@@H](O)[C@H](O)[C@H]3O)c1C2=O | -15.6 | 9 | 17.6 | 20.9 | 21.5 | 107 | 123 | 147 | 110 | 154
CN(C)CCN(Cc1ccc(Cl)cc1)c1ccccn1 | 9.7 | 9.7 | 15.2 | 13 | 12.1 | 106 | 112 | 112 | 93.5 | 123
O=C(CCCN1CCN(c2ccccn2)CC1)c1ccc(F)cc1 | -27.4 | 28.6 | 5 | 46.2 | 5.3 | 74.9 | 123 | 98.5 | 138 | 88
O=C1CN(/N=C/c2ccc([N+](=O)[O-])o2)C(=O)N1 | -10.8 | -9.5 | 9.3 | 7.8 | 14.2 | 91.1 | 99.8 | 96.4 | 130 | 84.2
COc1c2ccoc2cc2oc(=O)ccc12 | 7.6 | 18.4 | 17.4 | 6.3 | 1.5 | 123 | 111 | 110 | 70 | 79
CC(C)(O/N=C(\C(=O)N[C@@H]1C(=O)N2C(C(=O)[O-])=C(C[n+]3ccccc3)CS[C@H]12)c1csc(N)n1)C(=O)O | -14.9 | 6 | 42.7 | 7.1 | 24.8 | 107 | 109 | 135 | 86.6 | 140
CN1CCCC(n2nc(Cc3ccc(Cl)cc3)c3ccccc3c2=O)CC1 (stereo not given) | -32.3 | 18.3 | 3.1 | 37 | 16.5 | 64.6 | 134 | 95.7 | 97.5 | 84.5
O=c1[nH]cnc2c1ncn2[C@@H]1O[C@H](CO)[C@@H](O)[C@H]1O | 23.5 | -15.5 | 1.4 | -18.8 | 12.9 | 112 | 96.2 | 105 | 104 | 145
CS(=O)(=O)OCCCCOS(C)(=O)=O [GT 41 X 149 Mablin CB 2041 G.T. 41 GT 2041 Mileran Myleran] | -17.4 | -10.7 | 8.1 | -18 | 19.3 | 89.2 | 91 | 93.7 | 118 | 89.7
COc1cc(O)ccc1C(C)=O | -32 | -11.2 | 2.9 | 4.1 | -11.1 | 83.6 | 89.2 | 88 | 100 | 97.5
CC(C)Cn1c(=O)n(C)c(=O)c2[nH]cnc21 [3-Isobutyl-1-methylxanthine] | -21.4 | -0.7 | 23.7 | 34.2 | -5.6 | 82.7 | 116 | 126 | 111 | 91.3
Nc1ccc(S(N)(=O)=O)cc1 | -2.7 | -11.9 | -18.8 | -1.4 | 14.3 | 122 | 100 | 131 | 115 | 104
CC(=O)OC1CCC2(C)C3=C(CC[C@H]2C1(C)C)[C@@]1(C)CC[C@@H]([C@@H](C)CCC=C(C)C)[C@]1(C)CC3 (stereo not given in full) | 13.4 | 0.4 | 10.9 | 12.1 | -3 | 101 | 83.3 | 102 | 143 | 87.1
OCc1c[nH]c2ccccc12 | -9.8 | -7.6 | 2.2 | 16.2 | 0.7 | 132 | 76.5 | 125 | 77.3 | 99.4
COc1ccc(-c2coc3cc(OC)ccc3c2=O)cc1 | 22.7 | 10.5 | -2.9 | 13.8 | 2.3 | 91.3 | 99.9 | 101 | 66.5 | 93.5
CC(C)(CO)[C@@H](O)C(=O)NCCCO | 38 | 35.9 | -6.1 | 22.6 | 25.6 | 148 | 128 | 47.1 | 57.7 | 130

A different layout for some results above.

| SMILES | loss of total cells (Human fetal astrocytes [1]; 1.39 µM) [%] | loss of total cells (Human fetal astrocytes [1]; 2.78 µM) [%] | loss of total cells (Human fetal astrocytes [1]; 5.56 µM) [%] | loss of total cells (Human fetal astrocytes [1]; 11.11 µM) [%] | loss of total cells (Human fetal astrocytes [1]; 22.22 µM) [%] | synaptosome phagocytosis (Human fetal astrocytes [2]; 1.39 µM) [%] | synaptosome phagocytosis (Human fetal astrocytes [2]; 2.78 µM) [%] | synaptosome phagocytosis (Human fetal astrocytes [2]; 5.56 µM) [%] | synaptosome phagocytosis (Human fetal astrocytes [2]; 11.11 µM) [%] | synaptosome phagocytosis (Human fetal astrocytes [2]; 22.22 µM) [%] |
| --- | --- | --- | --- | --- | --- | --- | --- | --- | --- | --- |
| CC(=O)OC1CCC2(C)C3=C(CC[C@H]2C1(C)C)[C@@]1(C)CC[C@@H]([C@@H](C)CCC=C(C)C)[C@]1(C)CC3 (stereo not given in full) | 13.4 | 0.4 | 10.9 | 12.1 | -3 | 101 | 83.3 | 102 | 143 | 87.1 |
| OCc1c[nH]c2ccccc12 | -9.8 | -7.6 | 2.2 | 16.2 | 0.7 | 132 | 76.5 | 125 | 77.3 | 99.4 |
| COc1ccc(-c2coc3cc(OC)ccc3c2=O)cc1 | 22.7 | 10.5 | -2.9 | 13.8 | 2.3 | 91.3 | 99.9 | 101 | 66.5 | 93.5 |
